{"source": "paper PMC6923382", "about": "“Small molecules that inhibit TNF signalling by stabilising an asymmetric form of the trimer” (Nature Communications, 2019)", "experiment": "Blood exposure of UCB-9260 in the mouse models", "format": "in vivo", "conditions": "150mg/kg; CAIA model; individual mice", "note": "Several values for one entry are separate records, joined by “and”; a condition that tells them apart may be missing. Equal entries are not always repeated. This continues a long series; more values of the same kind are listed elsewhere.", "data": [{"molecule": "Cc1ccc(C)c(Cn2c(C(O)c3ccncc3)nc3ccc(-c4cnn(C)c4)cc32)c1", "note": "(stereo not shown) [UCB-9260]", "values": [{"measurement": "Free UCB-9260, 1 hour", "result": "320.5 nM and 69.4 nM and 438.7 nM"}, {"measurement": "Free UCB-9260, 6 hour", "result": "827.4 nM and 105.3 nM and 29.5 nM"}, {"measurement": "Total UCB-9260, 1 hour", "result": "2.8906 µM and 18.2799 µM"}, {"measurement": "Total UCB-9260, 6 hour", "result": "4388.6 nM and 1229.9 nM"}]}]}
